According to doi:10.1101/2023.06.15.545071:
Like-named read-outs stand apart in the source and are kept apart here. These are yes or no findings as the source states them, for the method shown. For some of these results: In cells and extracts the contact can be indirect. Some binding calls cover weakened binding; strength is not graded here. Where a sequence is shown, tags or fusion partners need not be part of it.

How the values were obtained:
[1] = biological target: T1, PLS fused to the GAL4 DNA-binding domain (bait, pBD-GAL4 Cam) (Arabidopsis thaliana) (UniProt Q8LLV8); test: two-hybrid
T1 sequence: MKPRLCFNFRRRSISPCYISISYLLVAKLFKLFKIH

[2] = biological target: T2, PLS linked to a C-terminal GFP (p35S::PLS:GFP) (Arabidopsis thaliana) (UniProt Q8LLV8); test: co-IP
T2 sequence: T1 sequence

[3] = biological target: T3, ETR1 with a C-terminal HA tag (p35S::ETR1:HA) (Arabidopsis) (UniProt P49333); test: co-IP
T3 sequence: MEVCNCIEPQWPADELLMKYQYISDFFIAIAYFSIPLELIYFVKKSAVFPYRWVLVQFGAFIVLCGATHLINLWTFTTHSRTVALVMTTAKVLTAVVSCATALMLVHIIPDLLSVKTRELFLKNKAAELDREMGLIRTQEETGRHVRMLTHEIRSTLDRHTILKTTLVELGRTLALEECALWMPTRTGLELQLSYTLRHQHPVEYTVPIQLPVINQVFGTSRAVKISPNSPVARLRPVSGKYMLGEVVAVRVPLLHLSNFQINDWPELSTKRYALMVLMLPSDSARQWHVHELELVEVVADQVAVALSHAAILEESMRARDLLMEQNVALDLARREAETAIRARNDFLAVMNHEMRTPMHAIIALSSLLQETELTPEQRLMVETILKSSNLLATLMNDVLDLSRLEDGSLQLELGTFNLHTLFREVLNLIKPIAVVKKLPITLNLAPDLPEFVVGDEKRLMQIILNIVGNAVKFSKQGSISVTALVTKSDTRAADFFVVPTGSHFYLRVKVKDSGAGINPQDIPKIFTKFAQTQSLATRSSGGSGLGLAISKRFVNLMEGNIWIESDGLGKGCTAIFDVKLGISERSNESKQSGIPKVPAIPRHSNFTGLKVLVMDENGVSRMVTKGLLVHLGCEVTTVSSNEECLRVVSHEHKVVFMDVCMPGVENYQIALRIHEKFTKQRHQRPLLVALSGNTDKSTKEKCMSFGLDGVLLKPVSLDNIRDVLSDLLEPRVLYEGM

[4] = biological target: T3, ETR1 with a C-terminal HA tag (p35S::ETR1:HA) (Arabidopsis); test: co-IP; remark: listed apart in the source

B1: ETR1 fused to the GAL4 activation domain (target, pAD-GAL4-2.1) (receptor, UniProt P49333 1-738)
chain: T3 sequence
With B1 the binding [1] was “binds”.

B2: ETR1 with a C-terminal HA tag (p35S::ETR1:HA) (receptor, UniProt P49333 1-738)
chain: T3 sequence
With B2 the binding [2] was “binds”.

MKPRLCFNFRRRSISPCYISISYLLVAKLFKLFKIH (peptide, UniProt Q8LLV8 1-36) [PLS linked to a C-terminal GFP (p35S::PLS:GFP)] was tested, and the binding [3] was “binds” and the binding [4] was “binds”.
